Where a name gives a salt, the structure may show the parent alone. The whole screen tested about 5,300 compounds, of which about 130 (2.5%) showed an effect of 50% or more. The list shows a part of the results.
Each molecule was assayed on M. mycetomatis strain mm55. Details: primary screen, metabolic activity vs growth control; 96 h, 2 µM; inhibitor.

SMILES | % viability
Nc1ccc2ncnc(NCCc3ccc(Oc4ccccc4)cc3)c2c1 [ONC0004571, qnz evp4593] | 73.82%
Oc1c(Br)cc(Br)c2cccnc12 [Broxyquinoline] | 5.699%
Cc1cc(Nc2cc(C)c(C#N)c(NC(C)CCCC(C)(C)O)n2)n[nH]1 (stereo not shown) [ONC0001704, tca2317] | 79.38%
CNc1nc(-c2ccc3c(N)n[nH]c3c2)cc(N2C[C@@H](C(=O)NC3CCCCC3)CC[C@H]2C)n1 [ONC0002484, gsk2334470] | 37.41%
COc1ccc(-c2coc3cc(O)ccc3c2=O)cc1 [ONC0005242, formononetin formononetol] | 123.3%
CN1CCN(S(=O)(=O)c2ccc(-c3cnc(N)c(C(=O)Nc4cccnc4)n3)cc2)CC1 [ONC0005129, azd2858] | 89.64%
CC(N)(C(=O)O)c1ccc(-c2nnn[nH]2)cc1 (stereo not shown) [ONC0003092, mtpg] | 85.65%
C[C@]12CC[C@H](O)C[C@H]1CC[C@@H]1[C@@H]2C[C@@H](O)[C@]2(C)[C@@H](C3=CC(=O)OC3)CC[C@]12O [ONC0002441, digoxigenin] | 96.66%
CCc1noc(C)c1-c1[nH]c2ccccc2c1C(O)CN(C)C (stereo not shown) [ONC0005397, sari59801] | 156.2%
O=C(Nc1cc(C(F)(F)F)cc(C(F)(F)F)c1)c1cc(Cl)ccc1O [IKK2 inhibitor V (IMD-0354), IMD-0354] | 2.589%
O=C(Nc1cccnn1)N1CCC(=Cc2cccc(Oc3ccc(C(F)(F)F)cn3)c2)CC1 [ONC0001769, pf04457845] | 98.3%
C[C@H](N[C@@H](CCc1ccccc1)C(=O)O)C(=O)N1CCC[C@H]1C(=O)O [ONC0003897, enalaprilat] | 70.49%
O=C1N[C@H](C(=O)O)CS1 [ONC0005296, procysteine] | 92.18%
NC(=O)N1CCC(CC(=O)N2CCC([C@H]3c4ncc(Br)cc4CCc4cc(Cl)cc(Br)c43)CC2)CC1 [ONC0004448, lonafarnib sch66336] | 106.8%
Nc1nc2nc[nH]c2c(=S)[nH]1 [ONC0003925, tioguanine] | 107.9%
COCCCC/C(=N\OCCN)c1ccc(C(F)(F)F)cc1 [ONC0004117, fluvoxamine maleate] | 169.8%
CN1C(=O)c2c(nn(Cc3ccc(-c4cccc(F)n4)cc3)c2Nc2ccccc2)N2C1=N[C@@H]1CCC[C@@H]12 [ONC0002210, iti214] | 93.79%
CC(C)C(=O)OC[C@@]1(N=[N+]=[N-])O[C@@H](n2ccc(N)nc2=O)[C@H](OC(=O)C(C)C)[C@@H]1OC(=O)C(C)C [ONC0001112, balapiravir] | 67.01%
COC(=O)[C@H](c1ccccc1Cl)N1CCc2sccc2C1 [ONC0002451, clopidogrel sulfate] | 93.13%
O=C(O)CCN(O)C(=O)CCCCCCCCC1CC1 [ONC0003551, tce5002] | 124.5%

Fetched by compound from the list above (2):
SMILES | % viability
C[C@H](N[C@@H](CCc1ccccc1)C(=O)O)C(=O)N1CCC[C@H]1C(=O)O [ONC0003897, enalaprilat] | 70.49%
O=C(Nc1cc(C(F)(F)F)cc(C(F)(F)F)c1)c1cc(Cl)ccc1O [IKK2 inhibitor V (IMD-0354), IMD-0354] | 2.589%

Next entries follow:

SMILES | % viability
CCCOCCn1c(=O)c(N2CCN(CCO)CC2)nc2cnc(-c3ccc(OC)nc3)cc21 [ONC0001952, pf03049423] | 82.32%
NC(=O)N[C@@H](CCC(=O)O)C(=O)O [ONC0005335, carglumic acid] | 123.9%
O=C1NC(=O)/C(=C\c2cccc(C(F)(F)F)c2)S1 [ONC0004444, smi4a] | 130.7%
CN1C/C=C/CCOc2cccc(c2)-c2ccnc(n2)Nc2cccc(c2)C1 [ONC0001026, sb1317] | 86.64%
CCCCC1CCC(c2nc(-c3ccncc3)no2)CC1 (stereo not shown) [ONC0002588, psn375963] | 57.7%
Clc1ccc(C(OCCN2CCCCC2)c2ccccc2)cc1 (stereo not shown) [ONC0002432, cloperastine hydrochloride] | 104.4%
C1Cc2[nH]nc(-c3nnn[nH]3)c2C1 [ONC0001195, mk0354] | 106.7%
CCc1cc2cc(OC)c(OC)cc2c(Cc2ccccc2)n1 [ONC0003645, moxaverine] | 67.43%
NS(=O)(=O)Nc1ncnc(OCCOc2ncc(Br)cn2)c1-c1ccc(Br)cc1 [ONC0002096, aprocitentan] | 65.83%
c1ccc(-c2ncc(CN3CCN(c4ncccn4)CC3)[nH]2)cc1 [ONC0000007, ngd941] | 130.5%
C[C@@H](NCc1cc(Br)cc2[nH]c(=O)c(=O)[nH]c12)P(=O)(O)O [ONC0002242, cgp78608] | 62.66%
CC[C@H](/C=C/[C@@H](C)[C@H]1CC[C@H]2[C@@H]3CC=C4C[C@@H](O)CC[C@]4(C)[C@H]3CC[C@]12C)C(C)C [ONC0004621, stigmasterol stigmasterin] | 79.69%
O=C(O)c1cn(-c2ccc(F)cc2)c2cc(N3CCNCC3)c(F)cc2c1=O [ONC0004168, sarafloxacin hydrochloride] | 125.6%
Fc1ccc2nc(CCC#Cc3ccccn3)cn2c1 [ONC0000987, dipraglurant] | 81.02%
O=C(O)Cc1ccc(-c2ccccc2)cc1 [ONC0005558, felbinac] | 137.1%
CCOc1ccccc1N/N=C1/C(=O)N(c2nc(-c3ccccc3)cs2)N=C1C [ONC0004348, bam7] | 99.99%
Cc1cc2c(cc1CC(=O)c1sccc1S(=O)(=O)Nc1onc(C)c1Cl)OCO2 [ONC0002487, sitaxsentan sodium] | 69.63%
CC(=O)OCC(=O)[C@H]1CC[C@H]2[C@@H]3CC[C@H]4C[C@H](O)CC[C@]4(C)[C@H]3C(=O)C[C@]12C [ONC0002919, alfadoloneacetate] | 58.51%
O=C(NC[C@H]1CN(c2ccc(N3CCOCC3=O)cc2)C(=O)O1)c1ccc(Cl)s1 [rivaroxaban xarelto] | 98.3%
O=c1ccc2cc(O[C@@H]3O[C@H](CO)[C@@H](O)[C@H](O)[C@@H]3O)c(O)cc2o1 [ONC0005096, aesculin esculin] | 111.9%
